# According to article PMC7819943, “Rice protein-binding microarrays: a tool to detect cis-acting elements near promoter regions in rice”:
# Some of the results follow.
# Biological target: T1, OsSMF1 (Oryza sativa, UniProt Q6ZLB0 1-436)
# T1 sequence: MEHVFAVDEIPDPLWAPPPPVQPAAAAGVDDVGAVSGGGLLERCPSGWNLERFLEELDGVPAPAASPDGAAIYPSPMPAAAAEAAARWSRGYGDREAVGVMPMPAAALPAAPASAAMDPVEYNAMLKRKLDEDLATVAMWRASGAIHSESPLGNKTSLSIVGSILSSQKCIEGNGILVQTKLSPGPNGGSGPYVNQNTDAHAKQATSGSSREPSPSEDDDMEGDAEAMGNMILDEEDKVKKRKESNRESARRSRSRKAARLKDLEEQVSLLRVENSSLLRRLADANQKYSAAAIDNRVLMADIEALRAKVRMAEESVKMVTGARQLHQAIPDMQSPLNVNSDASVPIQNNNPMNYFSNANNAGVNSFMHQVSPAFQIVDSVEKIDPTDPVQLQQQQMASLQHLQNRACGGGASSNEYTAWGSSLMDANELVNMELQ
# Test: protein-binding microarray (RPBM); PBS, 2% BSA, 51.3 ng/ul salmon testes DNA, 50 uM zinc acetate, 200 nM TF, 25 C, 1 h; high values mean tight binding
# Details: protein: recombinant; tags: N-terminal polyhistidine and DsRed monomer fusion (pET32a); chain copies: 2; label: CyDye5-dUTP incorporated in the synthesized complementary strand; 3' TTTTT single-stranded linker to array surface; dsDNA, one strand shown
# Outline: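 Binding signal is defined as the fluorescence intensity of each feature in arbitrary units, read on an Axon 4000B scanner. Transcription factors with N-terminal polyhistidine and DsRed fusions came from E. coli BL21-CodonPlus and were purified on Ni–NTA. They were incubated at 200 nM for 1 h at 25 °C on a custom Agilent array that had been made double-stranded with Cy5-dUTP, with 50 µM zinc acetate present, and the array was washed.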
row,Sequence,binding signal
1,CCAGTTTACGATTCTGACAGGCCCTTCCGTTTTGGGCACTCGGAGTCACCTAGTGCAG,3450 fluorescence intensity (a.u.)
2,GCTTCTGTACATCTGCAACCTGTGAGTACAATACAAGTGACGGAGTCACCTAGTGCAG,30300 fluorescence intensity (a.u.)
3,CACCCGTGTTGTGGCACCAATAATGTTGGGCTTCTCTCCCCGGAGTCACCTAGTGCAG,3620 fluorescence intensity (a.u.)
4,CGGTTGAGGGATGTGGCACAAACTCAATTTGTATAGTTAACGGAGTCACCTAGTGCAG,3160 fluorescence intensity (a.u.)
5,TTATTACTCCTTGTCACAGTTTATAGGGTGTTCTTTTACACGGAGTCACCTAGTGCAG,3590 fluorescence intensity (a.u.)
6,CAATCTTGATTGTTGGGCAGTTGGGCTTAGTTGATGTATGCGGAGTCACCTAGTGCAG,3470 fluorescence intensity (a.u.)
7,CCTCGTCCGCCTTGGTCTTCTTCCAGCCGAGGAGCAACCGCGGAGTCACCTAGTGCAG,48200 fluorescence intensity (a.u.)
8,AGCTACATACGTACCTACGTTACGTTAATTTCTTGCTTGCCGGAGTCACCTAGTGCAG,3440 fluorescence intensity (a.u.)
9,GCAATCTCATGATTCATGCAGCTTTGTAGCAATGTGTGCTCGGAGTCACCTAGTGCAG,3140 fluorescence intensity (a.u.)
10,TCTCCTCTCCTCCAGCGAAGGACGGCGACGAACTCGACGACGGAGTCACCTAGTGCAG,14500 fluorescence intensity (a.u.)
11,CTTTGTTTGCGCTGGTAGCCGCCGCCGTGACATGCGCTCACGGAGTCACCTAGTGCAG,37300 fluorescence intensity (a.u.)
12,CTGATGACTGTCTTGTCATCATTTGATTATTTCCTAAGCCCGGAGTCACCTAGTGCAG,6290 fluorescence intensity (a.u.)
13,TCGACTATGCCACGTCAGCGATTCGGTACAGTACTACAGTCGGAGTCACCTAGTGCAG,25600 fluorescence intensity (a.u.)
14,GCCACTTTGGAGACTTTTATGCCCAAAATGTCCGTGTAGCCGGAGTCACCTAGTGCAG,7000 fluorescence intensity (a.u.)
15,GTTATATACGGATTAGCTGTATTCATCGGATTACCTGTTGCGGAGTCACCTAGTGCAG,3550 fluorescence intensity (a.u.)
16,ACTCAACAAGTCAACACGATCAAACTCCCACATCAGCAGACGGAGTCACCTAGTGCAG,7320 fluorescence intensity (a.u.)
17,GAAAATAAGGGAGTTTTCTGCAAAATTTGATGAATGGAAGCGGAGTCACCTAGTGCAG,3230 fluorescence intensity (a.u.)
18,AGTCGCACGCCAAGTGTTTGTTGTTTTGCCAAGCAAGATGCGGAGTCACCTAGTGCAG,3520 fluorescence intensity (a.u.)
19,AATTAGCATACTATAACACCAATAAACACATTATGACACCCGGAGTCACCTAGTGCAG,4380 fluorescence intensity (a.u.)
20,TAAGGTCCATGAACTTGTTTAAGTGAATCATTGCGGTCCACGGAGTCACCTAGTGCAG,3490 fluorescence intensity (a.u.)
21,GGAGCCCATAAGCGAAATGTGTGTGCTGTACTGCTGTTCCCGGAGTCACCTAGTGCAG,3950 fluorescence intensity (a.u.)

# Looked up above:
# AGCTACATACGTACCTACGTTACGTTAATTTCTTGCTTGCCGGAGTCACCTAGTGCAG – binding signal: 3440 fluorescence intensity (a.u.)
# GTTATATACGGATTAGCTGTATTCATCGGATTACCTGTTGCGGAGTCACCTAGTGCAG – binding signal: 3550 fluorescence intensity (a.u.)
# CACCCGTGTTGTGGCACCAATAATGTTGGGCTTCTCTCCCCGGAGTCACCTAGTGCAG – binding signal: 3620 fluorescence intensity (a.u.)

# The list goes on:

row,Sequence,binding signal
1,ATATGCAAAATTCGCATGCCCGCTCATCGGCCTTTGTCACCGGAGTCACCTAGTGCAG,3820 fluorescence intensity (a.u.)
2,TATACTCCATCTGTTAATATATGGTCTCATCTATCATACACGGAGTCACCTAGTGCAG,30200 fluorescence intensity (a.u.)
3,TGTAAAATATTTGGTATTAGAGTTCATGTGACAATTGTATCGGAGTCACCTAGTGCAG,3280 fluorescence intensity (a.u.)
4,ACGTATTATCGAATTTTACGTATTCCTTCATGGAATACGTCGGAGTCACCTAGTGCAG,3180 fluorescence intensity (a.u.)
5,CGTCCTACTCTCATTGTAGATGAGGTGTCTCAGTTAAACCCGGAGTCACCTAGTGCAG,4080 fluorescence intensity (a.u.)
6,TTATCAAAGTAGAAGCAATTAAGCATTGTTTCATCGTCGTCGGAGTCACCTAGTGCAG,10800 fluorescence intensity (a.u.)
7,CTGAATGAGTCACTTAAACAAGATGGTGGACCTAAATGTGCGGAGTCACCTAGTGCAG,4440 fluorescence intensity (a.u.)
8,TGTGTGTGTACACGTATTTATATCCCGTGTGATCGAACAACGGAGTCACCTAGTGCAG,5770 fluorescence intensity (a.u.)
9,CACGCGCGCACTCGTCTCGCCGCGTCCACACCCATCGGCTCGGAGTCACCTAGTGCAG,3150 fluorescence intensity (a.u.)
10,TTCATCCTTCGTTACTGACACGTGGCCTAGTTTTGCAAGACGGAGTCACCTAGTGCAG,9300 fluorescence intensity (a.u.)
11,AAAACTAAAGAAGACGACGACACGCAAGCGAAAATTGCCCCGGAGTCACCTAGTGCAG,10600 fluorescence intensity (a.u.)
12,CTCGCTCGATCGTTCGCCGCATCAGCCAGTCTCAGTCCGCCGGAGTCACCTAGTGCAG,3860 fluorescence intensity (a.u.)
13,CGCTCTCGCAGCCCCTCTCCACGTCGTCCACCACGCGCTCCGGAGTCACCTAGTGCAG,5580 fluorescence intensity (a.u.)
14,TCTGCCTTTTGCTATGACAGCATTGTGTGGACTATAGCATCGGAGTCACCTAGTGCAG,3540 fluorescence intensity (a.u.)
15,GTTCTTATCCTCCTCTGCCAGCAGTGACTCACCTCGCCACCGGAGTCACCTAGTGCAG,12500 fluorescence intensity (a.u.)
16,CTGCTAAGTAGGTCCATGACGCAAGATCTGCTCCGGGTGACGGAGTCACCTAGTGCAG,3780 fluorescence intensity (a.u.)
17,GCAACAAAGCGCATGTCATCATCTAGTGAATTAGCTAATGCGGAGTCACCTAGTGCAG,4040 fluorescence intensity (a.u.)
18,TCAGTACCTCATCACTGATTTGATGCTATGCTGCCCAGTGCGGAGTCACCTAGTGCAG,33100 fluorescence intensity (a.u.)
19,ACCAATGCAATTTCATATCAAACAGTCACGGATGGGCTTTCGGAGTCACCTAGTGCAG,3190 fluorescence intensity (a.u.)
20,AGTAGTTTAAAATACATGTTAAACGGAAATCGAGGTAAAACGGAGTCACCTAGTGCAG,33700 fluorescence intensity (a.u.)
21,TCCTCCAATCGGAGAGGTGTGCTCGCGTGTTTGGTTTGACCGGAGTCACCTAGTGCAG,3940 fluorescence intensity (a.u.)
